According to publication PMC6988362:
No constants are given. Whether binding was seen depends on the method and setting. In cells and extracts the contact can be indirect. Some results given as binding are weak or reduced against the parent protein; the word gives no strength.

Chains of the proteins cited; added tags and fusions are not shown. Residues count along the entry.
UniProt Q9QX01: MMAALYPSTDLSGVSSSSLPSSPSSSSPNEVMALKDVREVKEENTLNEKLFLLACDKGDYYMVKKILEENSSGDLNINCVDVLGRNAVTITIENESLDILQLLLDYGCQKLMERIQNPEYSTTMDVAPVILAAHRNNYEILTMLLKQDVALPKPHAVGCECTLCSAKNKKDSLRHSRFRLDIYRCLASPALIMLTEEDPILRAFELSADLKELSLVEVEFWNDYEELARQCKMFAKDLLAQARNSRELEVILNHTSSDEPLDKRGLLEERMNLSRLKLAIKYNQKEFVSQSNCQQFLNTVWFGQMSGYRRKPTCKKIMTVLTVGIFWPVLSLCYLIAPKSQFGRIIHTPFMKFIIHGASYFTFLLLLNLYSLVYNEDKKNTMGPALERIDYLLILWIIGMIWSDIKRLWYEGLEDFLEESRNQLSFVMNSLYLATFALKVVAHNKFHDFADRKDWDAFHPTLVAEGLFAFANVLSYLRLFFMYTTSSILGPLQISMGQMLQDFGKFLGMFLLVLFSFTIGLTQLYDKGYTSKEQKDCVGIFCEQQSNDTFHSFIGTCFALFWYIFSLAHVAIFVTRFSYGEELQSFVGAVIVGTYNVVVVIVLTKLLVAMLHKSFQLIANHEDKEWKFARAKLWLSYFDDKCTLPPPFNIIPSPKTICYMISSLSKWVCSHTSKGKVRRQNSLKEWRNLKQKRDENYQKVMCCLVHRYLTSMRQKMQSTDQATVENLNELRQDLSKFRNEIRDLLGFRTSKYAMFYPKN
UniProt P48995: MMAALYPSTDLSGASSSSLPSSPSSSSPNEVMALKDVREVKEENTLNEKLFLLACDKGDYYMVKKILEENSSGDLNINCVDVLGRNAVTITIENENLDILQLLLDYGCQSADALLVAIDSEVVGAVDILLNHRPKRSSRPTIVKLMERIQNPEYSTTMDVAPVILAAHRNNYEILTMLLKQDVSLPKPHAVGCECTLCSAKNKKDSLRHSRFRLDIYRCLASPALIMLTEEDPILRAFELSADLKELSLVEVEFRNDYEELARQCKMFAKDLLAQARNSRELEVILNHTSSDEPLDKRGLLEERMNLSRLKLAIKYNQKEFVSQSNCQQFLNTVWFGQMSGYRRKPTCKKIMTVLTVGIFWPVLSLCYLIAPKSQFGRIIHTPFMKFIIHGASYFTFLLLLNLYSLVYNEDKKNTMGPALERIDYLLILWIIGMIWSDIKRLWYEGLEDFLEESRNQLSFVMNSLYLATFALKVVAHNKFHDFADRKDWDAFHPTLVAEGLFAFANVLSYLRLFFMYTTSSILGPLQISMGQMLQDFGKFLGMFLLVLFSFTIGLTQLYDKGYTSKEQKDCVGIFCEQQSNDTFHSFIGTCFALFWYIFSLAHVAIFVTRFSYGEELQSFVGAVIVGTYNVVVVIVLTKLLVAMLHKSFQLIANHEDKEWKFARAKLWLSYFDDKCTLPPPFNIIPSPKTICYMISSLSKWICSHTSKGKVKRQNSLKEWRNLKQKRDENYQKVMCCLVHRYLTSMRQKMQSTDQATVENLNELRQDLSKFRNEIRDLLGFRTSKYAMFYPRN
UniProt P23385, residues 19-1199: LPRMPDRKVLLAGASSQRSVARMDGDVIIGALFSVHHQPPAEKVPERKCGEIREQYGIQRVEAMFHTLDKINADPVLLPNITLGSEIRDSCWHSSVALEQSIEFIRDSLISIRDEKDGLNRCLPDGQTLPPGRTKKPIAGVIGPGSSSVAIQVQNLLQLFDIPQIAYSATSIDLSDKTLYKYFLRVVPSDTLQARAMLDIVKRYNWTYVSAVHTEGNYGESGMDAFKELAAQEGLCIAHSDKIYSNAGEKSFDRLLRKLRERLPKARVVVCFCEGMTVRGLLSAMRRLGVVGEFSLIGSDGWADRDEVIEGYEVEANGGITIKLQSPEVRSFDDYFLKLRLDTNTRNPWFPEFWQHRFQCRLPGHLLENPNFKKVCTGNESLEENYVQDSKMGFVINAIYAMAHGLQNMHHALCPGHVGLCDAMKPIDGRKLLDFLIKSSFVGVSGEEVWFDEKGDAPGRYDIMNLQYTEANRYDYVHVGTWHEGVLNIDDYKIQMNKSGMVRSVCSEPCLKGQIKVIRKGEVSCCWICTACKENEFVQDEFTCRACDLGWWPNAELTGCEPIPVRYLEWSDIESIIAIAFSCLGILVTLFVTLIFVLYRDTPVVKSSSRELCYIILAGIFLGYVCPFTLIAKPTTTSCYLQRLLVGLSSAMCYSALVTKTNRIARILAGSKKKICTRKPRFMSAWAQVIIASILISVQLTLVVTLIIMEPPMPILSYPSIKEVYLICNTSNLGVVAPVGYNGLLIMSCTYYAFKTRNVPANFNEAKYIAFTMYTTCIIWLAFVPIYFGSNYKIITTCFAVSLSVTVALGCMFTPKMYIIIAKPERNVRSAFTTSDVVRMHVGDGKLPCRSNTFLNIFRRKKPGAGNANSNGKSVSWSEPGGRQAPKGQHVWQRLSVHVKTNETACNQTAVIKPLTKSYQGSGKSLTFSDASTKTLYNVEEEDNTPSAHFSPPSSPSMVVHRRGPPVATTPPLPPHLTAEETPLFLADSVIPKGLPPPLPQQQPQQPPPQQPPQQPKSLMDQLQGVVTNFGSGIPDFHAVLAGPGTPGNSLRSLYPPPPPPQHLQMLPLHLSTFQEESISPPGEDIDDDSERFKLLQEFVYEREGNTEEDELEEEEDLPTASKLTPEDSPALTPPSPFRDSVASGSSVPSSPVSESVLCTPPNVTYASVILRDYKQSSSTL
UniProt Q9UBN4: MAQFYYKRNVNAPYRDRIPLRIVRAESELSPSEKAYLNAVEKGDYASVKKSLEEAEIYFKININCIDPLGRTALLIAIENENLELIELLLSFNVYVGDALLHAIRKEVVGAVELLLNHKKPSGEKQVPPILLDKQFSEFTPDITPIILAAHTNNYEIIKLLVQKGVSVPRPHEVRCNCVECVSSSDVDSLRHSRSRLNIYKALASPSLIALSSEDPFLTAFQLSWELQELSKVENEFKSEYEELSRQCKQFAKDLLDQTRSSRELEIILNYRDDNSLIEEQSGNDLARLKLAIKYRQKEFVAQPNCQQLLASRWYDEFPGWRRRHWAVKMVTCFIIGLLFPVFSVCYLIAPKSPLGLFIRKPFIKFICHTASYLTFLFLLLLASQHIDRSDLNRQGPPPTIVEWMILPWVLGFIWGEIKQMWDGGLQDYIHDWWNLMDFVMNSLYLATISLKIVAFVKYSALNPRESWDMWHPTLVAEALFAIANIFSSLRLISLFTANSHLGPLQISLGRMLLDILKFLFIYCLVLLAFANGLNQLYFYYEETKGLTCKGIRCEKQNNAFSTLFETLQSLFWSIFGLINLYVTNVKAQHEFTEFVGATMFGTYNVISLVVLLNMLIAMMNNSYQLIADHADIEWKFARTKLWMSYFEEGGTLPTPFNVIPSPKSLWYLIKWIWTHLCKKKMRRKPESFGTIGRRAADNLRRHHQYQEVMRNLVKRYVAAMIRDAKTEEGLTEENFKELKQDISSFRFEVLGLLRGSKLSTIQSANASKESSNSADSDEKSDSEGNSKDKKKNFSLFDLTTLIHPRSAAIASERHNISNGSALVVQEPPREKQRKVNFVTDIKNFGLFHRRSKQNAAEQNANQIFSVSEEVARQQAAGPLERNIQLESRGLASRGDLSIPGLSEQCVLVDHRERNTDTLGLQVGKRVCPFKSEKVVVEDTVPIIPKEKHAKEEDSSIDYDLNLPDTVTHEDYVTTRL

Tests used:
[1] = target: TRPC1, endogenous in hippocampus (rat (endogenous in hippocampus)) (UniProt Q9QX01); experiment: co-IP; hippocampus homogenate in PBS, 1% Triton X-100; 1 mg protein precipitated with rabbit polyclonal anti-TRPC1 and protein-G sepharose at 4 °C; control with antibody preadsorbed with antigen peptide; Western blot with anti-mGluR1a
[2] = target: FLAG-tagged TRPC1, expressed from pcDNA3.1-FLAG-TRPC1 in HEK-293 cells (UniProt P48995); experiment: co-IP; HEK-293 cells transiently co-transfected; lysis buffer 50 mM Tris pH 7.4, 120 mM NaCl, 1% Triton X-100, 2 mM EDTA; precipitated with anti-FLAG or anti-mGluR1a and protein-G sepharose; Western blot with anti-mGluR1a or anti-myc
[3] = target: metabotropic glutamate receptor 1a (mGluR1a), expressed from pRK5-mGluR1a in HEK-293 cells (UniProt P23385); experiment: as above

**Q.** “metabotropic glutamate receptor 1a (mGluR1a), endogenous in hippocampus (from UniProt P23385 19-1199)” was tested. Which binding [1] did it give?
**A.** The binding was “binds”.

**Q.** “metabotropic glutamate receptor 1a (mGluR1a), expressed from pRK5-mGluR1a in HEK-293 cells (from UniProt P23385 19-1199)” was tested. Which binding [2] did it give?
**A.** The binding was “binds”.

**Q.** “myc-tagged TRPC4, expressed from pcDNA3.1-myc-TRPC4 in HEK-293 cells (from UniProt Q9UBN4 1-977)” was tested. Which binding [3] did it give?
**A.** Its binding is “binds”.
